Laboratory results reported in publication PMC9234671, “Molecular determinants of αVβ5 localization in flat clathrin lattices – role of αVβ5 in cell adhesion and proliferation” (Journal of Cell Science, 2022).

The chains behind the UniProt entries cited, without tags or fusion partners. Residues count along the entry.
UniProt P18084, residues 24-799: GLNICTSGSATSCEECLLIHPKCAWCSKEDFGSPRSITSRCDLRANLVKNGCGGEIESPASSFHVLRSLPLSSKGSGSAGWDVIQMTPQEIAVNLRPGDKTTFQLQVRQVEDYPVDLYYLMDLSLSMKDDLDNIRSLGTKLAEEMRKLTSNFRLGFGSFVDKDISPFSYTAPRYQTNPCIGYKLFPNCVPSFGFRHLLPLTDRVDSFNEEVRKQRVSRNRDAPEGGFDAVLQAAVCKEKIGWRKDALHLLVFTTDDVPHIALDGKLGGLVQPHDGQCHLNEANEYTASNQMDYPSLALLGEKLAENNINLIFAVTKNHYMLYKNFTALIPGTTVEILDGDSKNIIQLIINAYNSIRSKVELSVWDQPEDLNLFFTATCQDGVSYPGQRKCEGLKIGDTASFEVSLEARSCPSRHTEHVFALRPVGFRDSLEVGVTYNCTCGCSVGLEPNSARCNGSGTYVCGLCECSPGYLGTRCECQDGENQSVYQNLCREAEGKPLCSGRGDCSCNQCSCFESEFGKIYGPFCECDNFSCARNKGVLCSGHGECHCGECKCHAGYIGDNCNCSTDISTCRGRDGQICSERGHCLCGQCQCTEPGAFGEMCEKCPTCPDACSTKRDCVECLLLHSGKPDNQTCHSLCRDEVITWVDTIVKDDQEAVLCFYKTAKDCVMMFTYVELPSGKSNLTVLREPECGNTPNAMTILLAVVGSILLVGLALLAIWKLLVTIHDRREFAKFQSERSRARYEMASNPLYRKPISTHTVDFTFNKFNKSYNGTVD
UniProt O96013: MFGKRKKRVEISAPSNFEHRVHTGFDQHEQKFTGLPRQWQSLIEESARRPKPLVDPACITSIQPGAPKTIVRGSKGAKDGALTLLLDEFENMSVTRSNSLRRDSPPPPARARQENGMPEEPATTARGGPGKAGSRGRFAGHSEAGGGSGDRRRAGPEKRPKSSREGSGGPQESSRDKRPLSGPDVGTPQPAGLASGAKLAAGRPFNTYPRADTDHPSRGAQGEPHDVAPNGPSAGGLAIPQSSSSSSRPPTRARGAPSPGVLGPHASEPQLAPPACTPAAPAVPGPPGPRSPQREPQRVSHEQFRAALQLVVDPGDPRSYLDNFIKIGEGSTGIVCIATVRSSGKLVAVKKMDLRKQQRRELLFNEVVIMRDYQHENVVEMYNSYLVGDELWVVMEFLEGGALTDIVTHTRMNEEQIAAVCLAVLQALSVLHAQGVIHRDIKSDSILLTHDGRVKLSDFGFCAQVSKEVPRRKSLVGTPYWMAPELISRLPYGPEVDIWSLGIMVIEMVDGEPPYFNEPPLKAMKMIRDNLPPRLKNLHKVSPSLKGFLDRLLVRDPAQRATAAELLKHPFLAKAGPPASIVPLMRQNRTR
UniProt P33176: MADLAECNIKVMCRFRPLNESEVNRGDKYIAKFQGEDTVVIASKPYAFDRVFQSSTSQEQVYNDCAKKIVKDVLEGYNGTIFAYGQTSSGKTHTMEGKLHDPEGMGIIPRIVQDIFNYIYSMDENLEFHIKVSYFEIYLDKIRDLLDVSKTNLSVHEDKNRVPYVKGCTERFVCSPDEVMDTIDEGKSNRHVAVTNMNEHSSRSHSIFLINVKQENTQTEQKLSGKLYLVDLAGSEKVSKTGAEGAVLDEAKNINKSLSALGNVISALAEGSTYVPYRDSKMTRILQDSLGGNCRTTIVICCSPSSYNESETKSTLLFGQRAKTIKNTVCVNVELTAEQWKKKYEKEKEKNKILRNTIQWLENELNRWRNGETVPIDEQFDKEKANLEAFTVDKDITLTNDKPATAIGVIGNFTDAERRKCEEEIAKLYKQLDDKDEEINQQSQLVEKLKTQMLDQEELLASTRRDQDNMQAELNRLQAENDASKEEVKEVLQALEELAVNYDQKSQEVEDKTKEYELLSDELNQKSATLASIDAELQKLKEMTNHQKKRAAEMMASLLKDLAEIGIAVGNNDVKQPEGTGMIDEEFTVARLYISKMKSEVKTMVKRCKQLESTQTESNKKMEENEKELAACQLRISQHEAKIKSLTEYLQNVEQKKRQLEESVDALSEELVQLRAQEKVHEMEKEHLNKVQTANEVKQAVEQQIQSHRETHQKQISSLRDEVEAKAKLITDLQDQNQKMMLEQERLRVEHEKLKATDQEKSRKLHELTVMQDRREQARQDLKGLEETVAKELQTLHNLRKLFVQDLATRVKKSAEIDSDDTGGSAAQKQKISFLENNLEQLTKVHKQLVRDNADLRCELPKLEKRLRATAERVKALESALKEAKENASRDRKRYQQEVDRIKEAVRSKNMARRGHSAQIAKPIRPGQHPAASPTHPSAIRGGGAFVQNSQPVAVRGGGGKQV
UniProt Q15691: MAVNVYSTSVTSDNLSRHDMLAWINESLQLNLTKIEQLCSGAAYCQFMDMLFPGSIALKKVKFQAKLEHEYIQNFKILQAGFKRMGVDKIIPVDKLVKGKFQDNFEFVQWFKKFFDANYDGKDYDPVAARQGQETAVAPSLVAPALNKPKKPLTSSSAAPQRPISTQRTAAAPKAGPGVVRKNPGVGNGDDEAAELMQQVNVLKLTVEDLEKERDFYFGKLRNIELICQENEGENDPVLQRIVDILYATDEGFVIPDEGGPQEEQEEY
UniProt Q9NQU5: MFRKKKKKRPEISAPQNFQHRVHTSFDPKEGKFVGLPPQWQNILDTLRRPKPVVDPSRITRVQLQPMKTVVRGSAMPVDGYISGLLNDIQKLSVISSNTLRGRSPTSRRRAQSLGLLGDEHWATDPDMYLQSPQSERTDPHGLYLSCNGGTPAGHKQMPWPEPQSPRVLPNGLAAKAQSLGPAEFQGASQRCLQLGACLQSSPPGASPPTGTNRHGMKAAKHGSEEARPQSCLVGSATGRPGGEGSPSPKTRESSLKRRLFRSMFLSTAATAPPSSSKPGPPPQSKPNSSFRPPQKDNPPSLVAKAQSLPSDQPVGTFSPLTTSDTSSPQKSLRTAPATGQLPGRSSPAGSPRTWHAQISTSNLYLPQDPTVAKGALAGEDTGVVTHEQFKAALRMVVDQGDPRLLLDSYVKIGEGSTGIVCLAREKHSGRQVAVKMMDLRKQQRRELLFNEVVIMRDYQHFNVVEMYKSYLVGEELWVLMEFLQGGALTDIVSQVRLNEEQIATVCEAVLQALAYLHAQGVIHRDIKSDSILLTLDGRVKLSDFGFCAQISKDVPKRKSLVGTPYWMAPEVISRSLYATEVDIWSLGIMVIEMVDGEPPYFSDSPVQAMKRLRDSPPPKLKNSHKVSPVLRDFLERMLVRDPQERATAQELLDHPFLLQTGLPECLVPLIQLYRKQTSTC
UniProt Q9Y4B5: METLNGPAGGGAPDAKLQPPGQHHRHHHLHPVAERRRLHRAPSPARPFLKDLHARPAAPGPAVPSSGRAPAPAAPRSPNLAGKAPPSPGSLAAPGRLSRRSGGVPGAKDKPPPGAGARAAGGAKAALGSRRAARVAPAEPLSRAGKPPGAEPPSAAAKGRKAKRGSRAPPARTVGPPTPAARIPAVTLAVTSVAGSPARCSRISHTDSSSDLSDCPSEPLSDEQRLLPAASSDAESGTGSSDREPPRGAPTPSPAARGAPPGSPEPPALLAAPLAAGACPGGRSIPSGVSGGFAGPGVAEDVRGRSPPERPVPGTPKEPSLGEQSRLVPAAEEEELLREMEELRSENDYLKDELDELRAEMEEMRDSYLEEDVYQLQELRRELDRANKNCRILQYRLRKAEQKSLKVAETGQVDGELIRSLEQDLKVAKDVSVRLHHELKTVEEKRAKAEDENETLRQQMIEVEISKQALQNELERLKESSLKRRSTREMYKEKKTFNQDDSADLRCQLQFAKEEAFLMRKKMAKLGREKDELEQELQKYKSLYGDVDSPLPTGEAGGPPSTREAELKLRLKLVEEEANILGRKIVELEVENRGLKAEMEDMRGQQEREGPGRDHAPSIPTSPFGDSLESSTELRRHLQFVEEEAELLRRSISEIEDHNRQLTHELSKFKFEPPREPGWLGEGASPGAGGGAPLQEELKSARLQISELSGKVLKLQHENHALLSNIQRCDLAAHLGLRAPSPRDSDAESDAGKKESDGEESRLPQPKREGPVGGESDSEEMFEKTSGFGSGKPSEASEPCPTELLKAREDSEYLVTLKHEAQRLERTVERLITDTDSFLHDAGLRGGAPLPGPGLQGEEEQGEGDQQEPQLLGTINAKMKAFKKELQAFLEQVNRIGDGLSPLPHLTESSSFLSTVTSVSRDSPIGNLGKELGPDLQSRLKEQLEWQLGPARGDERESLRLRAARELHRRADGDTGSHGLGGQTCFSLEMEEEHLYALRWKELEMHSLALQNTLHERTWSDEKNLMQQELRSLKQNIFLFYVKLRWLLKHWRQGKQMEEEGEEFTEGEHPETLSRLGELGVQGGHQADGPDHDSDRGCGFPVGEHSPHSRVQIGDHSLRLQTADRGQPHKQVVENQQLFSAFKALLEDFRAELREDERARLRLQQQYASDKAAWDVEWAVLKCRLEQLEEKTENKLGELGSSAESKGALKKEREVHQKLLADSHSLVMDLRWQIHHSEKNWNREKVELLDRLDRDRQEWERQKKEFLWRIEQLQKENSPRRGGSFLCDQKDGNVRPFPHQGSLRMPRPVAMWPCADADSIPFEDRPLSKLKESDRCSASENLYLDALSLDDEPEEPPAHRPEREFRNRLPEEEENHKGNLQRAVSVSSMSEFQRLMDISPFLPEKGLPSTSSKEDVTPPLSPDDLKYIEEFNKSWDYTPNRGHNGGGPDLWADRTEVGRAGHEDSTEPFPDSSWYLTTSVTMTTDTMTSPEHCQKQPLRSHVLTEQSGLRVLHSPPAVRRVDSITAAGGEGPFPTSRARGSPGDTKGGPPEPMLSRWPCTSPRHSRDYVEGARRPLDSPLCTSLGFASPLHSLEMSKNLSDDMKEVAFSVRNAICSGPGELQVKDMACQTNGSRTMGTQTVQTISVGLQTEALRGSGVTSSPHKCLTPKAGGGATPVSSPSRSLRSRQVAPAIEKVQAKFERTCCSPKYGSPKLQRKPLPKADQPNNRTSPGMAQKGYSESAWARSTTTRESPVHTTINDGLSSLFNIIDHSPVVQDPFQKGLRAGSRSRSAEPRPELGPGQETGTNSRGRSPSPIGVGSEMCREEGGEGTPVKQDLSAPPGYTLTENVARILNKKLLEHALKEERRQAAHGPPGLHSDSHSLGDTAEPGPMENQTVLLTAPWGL
UniProt O75914: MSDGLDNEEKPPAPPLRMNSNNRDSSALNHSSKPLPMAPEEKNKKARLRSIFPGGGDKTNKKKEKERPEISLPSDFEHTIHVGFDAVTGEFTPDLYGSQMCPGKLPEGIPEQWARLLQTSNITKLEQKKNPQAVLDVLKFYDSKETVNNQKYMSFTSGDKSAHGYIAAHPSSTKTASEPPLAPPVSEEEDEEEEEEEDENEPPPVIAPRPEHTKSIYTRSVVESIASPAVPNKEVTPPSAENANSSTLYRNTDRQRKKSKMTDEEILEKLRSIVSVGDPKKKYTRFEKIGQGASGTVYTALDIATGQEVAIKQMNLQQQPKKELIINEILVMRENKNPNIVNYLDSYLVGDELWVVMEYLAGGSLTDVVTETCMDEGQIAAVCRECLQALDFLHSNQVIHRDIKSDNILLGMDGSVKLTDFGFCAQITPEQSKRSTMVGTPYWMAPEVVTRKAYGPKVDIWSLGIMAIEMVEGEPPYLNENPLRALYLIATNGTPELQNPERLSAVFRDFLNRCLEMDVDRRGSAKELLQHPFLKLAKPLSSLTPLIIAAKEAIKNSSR
UniProt Q9Y266: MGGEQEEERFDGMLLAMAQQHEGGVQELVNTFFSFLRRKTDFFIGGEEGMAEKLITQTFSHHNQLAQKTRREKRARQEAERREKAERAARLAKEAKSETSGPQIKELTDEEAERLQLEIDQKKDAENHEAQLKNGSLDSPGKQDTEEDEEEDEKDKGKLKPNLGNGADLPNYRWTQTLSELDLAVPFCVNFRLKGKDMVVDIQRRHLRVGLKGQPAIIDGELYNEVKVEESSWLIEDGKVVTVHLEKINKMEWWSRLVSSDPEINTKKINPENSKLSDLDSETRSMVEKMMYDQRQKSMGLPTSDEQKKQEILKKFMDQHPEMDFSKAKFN
UniProt Q13177: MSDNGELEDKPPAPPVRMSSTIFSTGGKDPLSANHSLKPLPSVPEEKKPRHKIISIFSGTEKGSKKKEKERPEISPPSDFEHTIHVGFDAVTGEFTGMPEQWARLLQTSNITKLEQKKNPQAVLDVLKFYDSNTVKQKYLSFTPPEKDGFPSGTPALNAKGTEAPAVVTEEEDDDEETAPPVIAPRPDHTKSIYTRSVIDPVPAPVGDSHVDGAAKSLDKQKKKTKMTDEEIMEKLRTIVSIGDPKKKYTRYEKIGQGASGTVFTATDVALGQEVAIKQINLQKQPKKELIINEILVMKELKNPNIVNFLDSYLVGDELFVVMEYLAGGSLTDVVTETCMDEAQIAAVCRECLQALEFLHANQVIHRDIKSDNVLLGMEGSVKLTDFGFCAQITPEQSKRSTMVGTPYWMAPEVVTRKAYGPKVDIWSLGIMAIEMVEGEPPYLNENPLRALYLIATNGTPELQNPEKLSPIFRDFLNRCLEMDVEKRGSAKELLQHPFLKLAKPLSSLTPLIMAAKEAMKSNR

B1: ARH (PA-JEB/β4 keratinocytes) (protein, UniProt Q5SW96 1-308)
chain: MDALKSAGRALIRSPSLAKQSWGGGGRHRKLPENWTDTRETLLEGMLFSLKYLGMTLVEQPKGEELSAAAIKRIVATAKASGKKLQKVTLKVSPRGIILTDNLTNQLIENVSIYRISYCTADKMHDKVFAYIAQSQHNQSLECHAFLCTKRKMAQAVTLTVAQAFKVAFEFWQVSKEEKEKRDKASQEGGDVLGARQDCTPSLKSLVATGNLLDLEETAKAPLSTVSANTTNMDEVPRPQALSGSSVVWELDDGLDEAFSRLAQSRTNPQVLDTGLTAQDMHYAQCLSPVDWDKPDSSGTEQDDLFSF
B2: Numb (PA-JEB/β4 keratinocytes) (protein, UniProt P49757 1-651)
chain: MNKLRQSFRRKKDVYVPEASRPHQWQTDEEGVRTGKCSFPVKYLGHVEVDESRGMHICEDAVKRLKAERKFFKGFFGKTGKKAVKAVLWVSADGLRVVDEKTKDLIVDQTIEKVSFCAPDRNFDRAFSYICRDGTTRRWICHCFMAVKDTGERLSHAVGCAFAACLERKQKREKECGVTATFDASRTTFTREGSFRVTTATEQAEREEIMKQMQDAKKAETDKIVVGSSVAPGNTAPSPSSPTSPTSDATTSLEMNNPHAIPRRHAPIEQLARQGSFRGFPALSQKMSPFKRQLSLRINELPSTMQRKTDFPIKNAVPEVEGEAESISSLCSQITNAFSTPEDPFSSAPMTKPVTVVAPQSPTFQANGTDSAFHVLAKPAHTALAPVAMPVRETNPWAHAPDAANKEIAATCSGTEWGQSSGAASPGLFQAGHRRTPSEADRWLEEVSKSVRAQQPQASAAPLQPVLQPPPPTAISQPASPFQGNAFLTSQPVPVGVVPALQPAFVPAQSYPVANGMPYPAPNVPVVGITPSQMVANVFGTAGHPQAAHPHQSPSLVRQQTFPHYEASSATTSPFFKPPAQHLNGSAAFNGVDDGRLASADRHTEVPTGTCPVDPFEAQWAALENKSKQRTNPSPTNPFSSDLQKTFEIEL
B3: HOOK2 (protein, UniProt Q96ED9 1-719)
chain: MSVDKAELCGSLLTWLQTFHVPSPCASPQDLSSGLAVAYVLNQIDPSWFNEAWLQGISEDPGPNWKLKVSNLKMVLRSLVEYSQDVLAHPVSEEHLPDVSLIGEFSDPAELGKLLQLVLGCAISCEKKQDHIQRIMTLEESVQHVVMEAIQELMTKDTPDSLSPETYGNFDSQSRRYYFLSEEAEEGDELQQRCLDLERQLMLLSEEKQSLAQENAGLRERMGRPEGEGTPGLTAKKLLLLQSQLEQLQEENFRLESGREDERLRCAELEREVAELQHRNQALTSLAQEAQALKDEMDELRQSSERAGQLEATLTSCRRRLGELRELRRQVRQLEERNAGHAERTRQLEDELRRAGSLRAQLEAQRRQVQELQGQRQEEAMKAEKWLFECRNLEEKYESVTKEKERLLAERDSLREANEELRCAQLQPRGLTQADPSLDPTSTPVDNLAAEILPAELRETLLRLQLENKRLCRQEAADRERQEELQRHLEDANRARHGLETQHRLNQQQLSELRAQVEDLQKALQEQGGKTEDAISILLKRKLEEHLQKLHEADLELQRKREYIEELEPPTDSSTARRIEELQHNLQKKDADLRAMEERYRRYVDKARMVMQTMEPKQRPAAGAPPELHSLRTQLRERDVRIRHLEMDFEKSRSQREQEEKLLISAWYNMGMALQQRAGEERAPAHAQSFLAQQRLATNSRRGPLGRLASLNLRPTDKH

Key:
[1] = biological target: integrin β5 (endogenous, keratinocytes) (human (endogenous in PA-JEB/β4 and HaCaT keratinocytes)) (UniProt P18084); experiment: affinity purification with mass spectrometry; immunoprecipitation of β5 with rabbit serum 5HK2 (β6 serum 5HK1 as negative control) on Protein A Sepharose from NP40 lysates of PA-JEB/β4 and HaCaT keratinocytes; label-free quantitation, FDR 0.05
β5–BirA* = β5–BirA* (UniProt P18084); experiment: proximity labelling; BioID: BirA* fusions expressed in PA-JEB/β4 keratinocytes, 50 µM biotin for 24 h, RIPA lysis, biotinylated proteins isolated on Streptavidin Sepharose, western blot

Row | binding [1] | binding (β5–BirA*) | Molecule
1 | no binding | – | p21-activated kinase 4 (PAK4) (from UniProt O96013 1-591) (enzyme)
2 | binds | – | kinesin-1 heavy chain (KIF5B) (from UniProt P33176 1-963)
3 | binds | – | EB1 (from UniProt Q15691 1-268)
4 | no binding | – | PAK6 (from UniProt Q9NQU5 1-681) (enzyme)
5 | binds | – | microtubule affinity-regulating kinase 2 (MARK2) (from UniProt Q7KZI7 1-788) (enzyme)
6 | binds | – | kinesin-1 light chain (KLC1) (from UniProt Q07866 1-573)
7 | binds | – | microtubule crosslinking factor 1 (MTCL1) (from UniProt Q9Y4B5 1-1905)
8 | no binding | – | PAK3 (from UniProt O75914 1-559) (enzyme)
9 | binds | – | NUDC (from UniProt Q9Y266 1-331)
10 | no binding | – | PAK2 (from UniProt Q13177 1-524) (enzyme)
11 | – | binds | B1
12 | – | binds | B2
13 | binds | – | B3

No constants are given. Whether binding was seen depends on the method and setting. Binding seen in cells or lysates may run through a third protein. A yes stands for co-enrichment or nearness to the bait. Other partners may have been found. For some of these results: A no says only that the protein was not detected with the bait.
